Screening data, single-dose tests

Measurements from “University of Dundee, Small-Polar-MMV Screening Library” (2021), ChEMBL document CHEMBL3988442.

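Whole-cell growth test on Mycobacterium tuberculosis, read after 3 days in glucose-containing 7H9 medium; the read-out is not stated. Compounds at 50 µM. The record gives no direction; compounds that gave an IC50 in retests scored well above the rest, so higher reads as more growth inhibition. Size under these conditions: about 69,000 compounds, about 760 of them at 50% or above in at least one test.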

Each number is a percent effect as filed.
How 0% and 100% were set is not recorded. Most values in the screen are low, and negative values occur.
The compounds are a random part of those screened.
Two or more numbers in one place are separate tests of the same structure; such repeats can differ widely.

structure	percent effect
COc1ncc(C2(O)CCN(Cc3cccs3)CC2)c(OC)n1.Cl	20.48%
CCc1nnc2n1CCN(C(=O)CCc1ccc(C)c(Cl)c1)C2	-1.13%
C[C@@H](NC(=O)c1cnccn1)c1c(-c2ccc(F)cc2)noc1C(=O)O	4.616% and -33.02%
O=C(O)C(F)(F)F.[H][C@@]12CN(Cc3ccc(CC)o3)C[C@]1([H])OCCN2c1ccnc(N(C)C)n1	28.86%
Cc1nc(NC(=O)c2nn(-c3ccc(F)cc3C)cc2O)n[nH]1	-16.01%
Cc1sc2c(C3CCCN(C)C3)nc(C)n2c1C (configuration not stated)	-31.91%
CN(C)C(=O)NCc1ncn2c1CN(Cc1cccs1)CCC2.O=C(O)C(F)(F)F.O=C(O)C(F)(F)F	-4.455% and 15.99%
N#Cc1cccc(NC2CC(=O)N(CCc3ccc(F)cc3)C2)n1 (configuration not stated)	5.902%
Cc1ccc(-n2nc(C)c3c2NC(=O)CC3c2cnc(N)s2)cc1 (configuration not stated)	-0.6626%
Cc1nc(C)n(CC2CCCN2Cc2nnc(-c3ccco3)o2)n1 (configuration not stated)	16.87%
CN(C)[C@@H]1CCN(c2ncc(F)cn2)[C@H]1Cc1ccncc1.O=C(O)C(F)(F)F.O=C(O)C(F)(F)F	-8.137% and 7.652%
CC(C)CN(CC(O)c1ccc(F)cc1)C(=O)c1cc[nH]n1 (configuration not stated)	-14.33%
O=C(NCCNc1cnccn1)N1CCCC(N2CCCC2)C1 (configuration not stated)	-9.778%
CC(C)n1nc(CN2CCCCC2)c2c1CN(C(=O)c1ccno1)C2.O=C(O)C(F)(F)F	-38.3%
CC(c1ccc(S(N)(=O)=O)cc1)N(C)C(=O)c1ccccc1I (configuration not stated)	-6.09%
NC(=O)c1ccc(OCC(=O)N2CCCC(n3cccn3)C2)cc1 (configuration not stated)	-0.7202%
CNc1cccc(C2CCCN(C(=O)c3ccn(C)n3)C2)n1 (configuration not stated)	-5.617%
COc1cc2c(cc1OC)C(=O)C(Sc1nnc(C)o1)C2 (configuration not stated)	4.278%
[H][C@@]12CCCC[C@]1(O)CCN(Cc1cc(=O)n3c4c(cccc14)CCC3)C2	5.93% and 5.554%
CNC(=O)NCC1CCC2(CCN(C(=O)c3ccccc3)CC2)CO1 (configuration not stated)	-2.976%
Cc1nnc(-c2cccc(C#N)c2)n1C1CCN(C(C)C)C1=O (configuration not stated)	6.599%
CCc1nc2n(n1)CC(NCc1cnn(-c3ccccc3)n1)CC2 (configuration not stated)	15.66%
O=C(N1CCOCC1)N1CCc2ncnc(Oc3cccnc3)c2CC1.O=C(O)C(F)(F)F	-3.934% and -9.37%
Cc1cc(C)n(C2CCCN(C(=O)c3cc(C(N)=O)cs3)C2)n1 (configuration not stated)	-8.118%
CC1(CNS(=O)(=O)c2cccc(C(=O)N3CCSCC3)c2)COC1	27.21%
Cc1nc2[nH]cnc(NCCCN3CCOCC3)c-2n1	-13.19%
CCOc1ccc(Oc2cc(CN)ccn2)cc1	31.15%
CN(Cc1cc(-c2cccnc2)no1)C(=O)c1cccn1C	-1.9%
CNS(=O)(=O)c1ccc(CN2CCC(c3ccncc3)CC2)cc1	14.49% and 2.318%
O=C(O)C(F)(F)F.O=C1COC2(CCN(CC3CC3)CC2)CN1c1ccsc1	-9.377%
CN1CCN(Cc2cn3c(n2)CN(C2CCOCC2)CC3)CC1.O=C(O)C(F)(F)F.O=C(O)C(F)(F)F.O=C(O)C(F)(F)F	-19.49%
COc1cccc(Cc2nnc(SC3CCOC3=O)o2)c1 (configuration not stated)	-16.53%
COc1cccc(N2CCC(CNC(=O)NCc3ccco3)C2)c1 (configuration not stated)	-13.06%
Cc1nn(C)c2nc(N(Cc3ccncc3)CC3CCCO3)sc12 (configuration not stated)	8.966%
CN1C(=O)CCCC12CCCN(C(=O)c1ccoc1)C2 (configuration not stated)	-13.73%
COCC(C)NC(=O)CN1CCC2(CC1)OCCO2 (configuration not stated)	23.42%

The last 3 entries again:

* Cc1nn(C)c2nc(N(Cc3ccncc3)CC3CCCO3)sc12 (configuration not stated) : 8.966%
* CN1C(=O)CCCC12CCCN(C(=O)c1ccoc1)C2 (configuration not stated) : -13.73%
* COCC(C)NC(=O)CN1CCC2(CC1)OCCO2 (configuration not stated) : 23.42%